The target in experiment [1] is EBNA3A-TurboID (biotin ligase domain fused to the C-terminus of EBNA3A) (Epstein-Barr virus) (UniProt P12977). Briefly: proximity labelling; HEK293T cells expressing TurboID-E3A or E3A-TurboID, biotin 120 min; biotinylated proteins isolated from lysates by NeutrAvidin precipitation, LC/MS/MS; untransfected cells as control.
Experiment [2] concerns the target TurboID-EBNA3A (biotin ligase domain fused to the N-terminus of EBNA3A) (Epstein-Barr virus) (UniProt P12977). The description is as above.
For experiment [3] the target is unchanged. Briefly: proximity labelling; HEK293T cells expressing HA-tagged TurboID-EBNA3A or TurboID-vector control, biotin for the indicated time points; NeutrAvidin precipitation, immunoblotting. On the technique in general: In western blotting, separated proteins are transferred to a membrane and probed.

Protein sequences, listed by entry. Tags and fused reporters are not part of them.
UniProt Q06330: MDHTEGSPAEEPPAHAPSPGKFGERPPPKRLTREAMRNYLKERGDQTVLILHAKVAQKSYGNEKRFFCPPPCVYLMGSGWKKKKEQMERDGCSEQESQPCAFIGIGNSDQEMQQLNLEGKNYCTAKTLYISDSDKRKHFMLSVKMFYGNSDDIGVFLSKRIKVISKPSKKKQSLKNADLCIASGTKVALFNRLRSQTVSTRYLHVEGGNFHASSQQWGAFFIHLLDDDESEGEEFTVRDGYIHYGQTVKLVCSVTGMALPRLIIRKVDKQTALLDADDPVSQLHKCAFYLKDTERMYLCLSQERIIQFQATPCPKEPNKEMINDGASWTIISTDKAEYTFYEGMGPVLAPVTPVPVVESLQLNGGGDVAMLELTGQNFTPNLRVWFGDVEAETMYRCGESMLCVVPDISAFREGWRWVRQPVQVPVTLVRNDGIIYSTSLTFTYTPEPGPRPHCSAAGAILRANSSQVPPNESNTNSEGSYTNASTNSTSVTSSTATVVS

The text below walks through data of article PMC11403517.

No constants are given. Whether binding was seen depends on the method and setting. In cells and extracts the contact can be indirect. These calls come from enrichment with a bait or labelling near it, and not all partners need be listed.

As to “c-terminal-binding protein 2 (CtBP2) (from UniProt P56545 1-445)”, the binding entry in experiment [1] and in experiment [2] was “binds” each time.

For the substance “CREB binding protein (CBP) (endogenous) (from UniProt Q92793 1-2442)”, the binding entry in experiment [3], in experiment [1] and in experiment [2] was “binds” in each case.

In the case of “histone acetyltransferase P300 (endogenous) (from UniProt Q09472 1-2414)”, the binding result in experiment [3], in experiment [1] and in experiment [2] was “binds” each time.

With “recombination signal binding protein for immunoglobulin kappa J region (RBP-Jκ) (from UniProt Q06330 1-500)”, the binding entry in experiment [1] and in experiment [2] was “binds” in each case.
